From PubChem BioAssay AID662 (National Center for Advancing Translational Sciences (NCATS), 2007)
The list shows a part of the results. These are further read-outs of the screen, such as a control signal, another cell line or another target. No call is given for them. Most of these compounds were active or inconclusive in the main read-out, so they are no random draw. Potencies come from curve fits of mixed quality, noted in brackets.

Assay: Cell signaling CRE-BLA (Fsk stim)
Details: CHO CRE-bla reporter (cAMP response element driving beta-lactamase), forskolin EC10, beta-lactamase ratio; measured here: 460 nm blue channel
Method in brief: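 Beta-lactamase reporter under a cAMP responsive element in CHO cells; compounds tested in titration series against EC10 NKH 477, 3 h at 37 °C. Read-out: CCF4 FRET ratio 460nm/530nm (excitation 405nm) giving %Activity, fitted to AC50.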

Row | Structure (SMILES) | AC50
1 | CCOc1ccc(NS(=O)(=O)c2ccc3[nH]cc(C(=O)NC(C)CC)c(=O)c3c2)cc1 (centres undefined) | 0.126 µM [falling, full curve, poor fit]
2 | O=C(NC1(C(=O)NC2CCCCC2)CCCCC1)c1ccc2c(c1)OCO2 | 3.98 µM [falling, single point]
3 | COCCN(CCOC)c1nc(C)nc2c1nc(-c1ccccc1)n2CCN(C)C | 25.1 µM [rising, single point]
4 | Clc1ccccc1OCc1nn2c(-c3ccncc3)nnc2s1 | 10 µM [rising, partial curve]
5 | COCCn1c(=O)c(-c2ccc(F)cc2)nc2cnc(Oc3ccc(OC)cc3)nc21 | 12.6 µM [rising, partial curve]
6 | Cc1cccc(/C=C\c2ccccc2)n1 | 12.6 µM [falling, single point]
7 | Nc1cc(=O)[nH]c(SCc2nc3ccccc3n2Cc2ccccc2)n1 | 0.501 µM [rising, full curve]
8 | CCNc1ncc2nc(-c3ccccc3)c(=O)n(Cc3ccc(F)cc3)c2n1 | 12.6 µM [rising, partial curve]
9 | CN(C)CCCc1cc(C(=O)Nc2ccc(-c3ccncc3)cc2)ccc1O | 0.0316 µM [rising, full curve, poor fit]
10 | OCCN(Cc1ccccc1)Cc1ccccc1F | 0.00794 µM [falling, full curve, poor fit]
11 | C/C(Nc1cccc(F)c1)=C(/C#N)C(N)=O | 12.6 µM [falling, partial curve, poor fit]
12 | CCCn1c(C)nc2c(NCc3ccccc3)nc(C)nc21 | 12.6 µM [rising, partial curve]
13 | CCCC(=O)Nc1cccc(-c2nc3cc(C)c(C)cc3o2)c1 | 5.01 µM [falling, single point]
14 | CCOC(=O)CC(=O)CSc1ccc2nnc(-c3ccc(C)cc3)n2n1 | 10 µM [rising, partial curve]
15 | CC[C@@H](CO)Nc1nc(NCc2ccccc2)c2ncn(C(C)C)c2n1 | 25.1 µM [falling, single point]
16 | Cn1cc(-c2nc3cnc(Oc4ccccc4)nc3n(CCC#N)c2=O)c2ccccc21 | 2.51 µM [rising, full curve]
17 | CCCCN1CSC(=S)N(Cc2ccccc2)C1 | 0.794 µM [falling, single point]
18 | COCC(=O)Nc1nc2n(n1)C(c1ccc(Cl)cc1)CC(c1ccc(OC)cc1)N2 (centres undefined) | 0.00398 µM [falling, full curve, poor fit]
19 | COC(=O)c1sc(NC(=O)c2ccc(Cn3cc(Cl)cn3)o2)c(C#N)c1C | 1.58 µM [rising, full curve, poor fit]
20 | COc1ccccc1N(CC(=O)NC1CCCC1)C(=O)CCC(=O)Nc1cc(C)on1 | 0.1 µM [falling, single point]
21 | CC(=O)NCCn1c(C)cc2ccccc21 | 10 µM [rising, partial curve]
22 | CCNc1nc(NCC)nc(OCCOC(=O)c2ccccc2)n1 | 12.6 µM [rising, partial curve]

Row | Structure (SMILES) | AC50
23 | COc1cc(-c2n[nH]c(=O)o2)cc(OC)c1OC | 10 µM [rising, single point]
24 | O=C(Nc1ccc2nc(-c3ccc(Br)o3)[nH]c2c1)c1ccco1 | 7.94 µM [rising, partial curve]
25 | CCOC(=O)C1CCN(CC(=O)c2c(C)[nH]c3cc(C)ccc23)CC1 | 3.98 µM [falling, full curve]
26 | CCN(CC(=O)Nc1ccc2c(c1)OCO2)Cc1nc2ccccc2c(=O)[nH]1 | 10 µM [rising, single point]
27 | COc1cccc(C(=O)N2CCSC2=S)c1 | 10 µM [falling, single point]
28 | COc1cccc(N2CCN(Cc3coc4c(Cl)cc(Cl)cc4c3=O)CC2)c1 | 7.94 µM [falling, single point]
29 | CCOC(=O)c1oc2ccccc2c1NC(=O)c1ccc2c(c1)OCO2 | 1.58 µM [rising, full curve]
30 | CCNc1ncc2nc(-c3ccc(OC)cc3)c(=O)n(CCC#N)c2n1 | 10 µM [rising, partial curve]
31 | O=C(CCc1ccccc1)NC1CCSC1=O (centres undefined) | 1 µM [rising, partial curve]
32 | CCOC(=O)C(C)Oc1cccc2c(=O)n(CC(=O)NCc3ccc4c(c3)OCO4)ccc12 (centres undefined) | 3.16 µM [rising, single point]
33 | O=C(Nc1ccccc1N1CCCCC1)c1cccc(F)c1 | 15.8 µM [rising, partial curve]
34 | CC(=O)C1=C(C)NC(SCC(=O)c2ccccc2)=C(C#N)C1c1ccco1 (centres undefined) | 10 µM [rising, partial curve]
35 | Cc1ccccc1OCc1nnc2c3cnn(C)c3ncn12 | 3.16 µM [rising, single point]
36 | Cc1ccccc1-c1nc(CS(=O)CC(=O)NCCCN(C)c2ccccc2)c(C)o1 (centres undefined) | 0.00398 µM [falling, full curve, poor fit]
37 | Cc1cccc2cc(C#N)c(SCC(=O)N3CCC(C)CC3)nc12 | 12.6 µM [rising, single point]
38 | N#Cc1ccc(OC(=O)c2ccc(N=C(N)N)cc2)cc1 | 3.16 µM [falling, single point]
39 | O=S(=O)(c1cccc2cnccc12)N1CCCNCC1 | 15.8 µM [falling, partial curve]
40 | COC(=O)CCC(=O)N1CCc2cc(S(=O)(=O)N3CCc4ccccc43)ccc21 | 25.1 µM [rising, single point]
41 | O=C(O)[C@@H]1[C@@H]2O[C@H]([C@@H](Br)[C@H]2Br)[C@H]1C(=O)O | 5.01 µM [rising, single point]
42 | CCOc1ccc(-c2nnn(CC(=O)c3ccc4c(c3)OCCO4)n2)cc1OCC | 12.6 µM [rising, partial curve]
43 | CCCN(C#N)c1nc(NCC)nc(NC(C)C)n1 | 15.8 µM [rising, partial curve]
44 | COc1ccc(-c2cc(C(F)(F)F)nc(S(C)(=O)=O)n2)cc1OC | 0.398 µM [falling, full curve]

Reprinted at random: three entries already listed
Row | Structure (SMILES) | AC50
24 | O=C(Nc1ccc2nc(-c3ccc(Br)o3)[nH]c2c1)c1ccco1 | 7.94 µM [rising, partial curve]
44 | COc1ccc(-c2cc(C(F)(F)F)nc(S(C)(=O)=O)n2)cc1OC | 0.398 µM [falling, full curve]
30 | CCNc1ncc2nc(-c3ccc(OC)cc3)c(=O)n(CCC#N)c2n1 | 10 µM [rising, partial curve]
